# From PubChem BioAssay AID1671190 (National Center for Advancing Translational Sciences (NCATS), 2021)
# The chains behind the UniProt entries cited, without tags or fusion partners.
# UniProt P18054, whole entry, looked up: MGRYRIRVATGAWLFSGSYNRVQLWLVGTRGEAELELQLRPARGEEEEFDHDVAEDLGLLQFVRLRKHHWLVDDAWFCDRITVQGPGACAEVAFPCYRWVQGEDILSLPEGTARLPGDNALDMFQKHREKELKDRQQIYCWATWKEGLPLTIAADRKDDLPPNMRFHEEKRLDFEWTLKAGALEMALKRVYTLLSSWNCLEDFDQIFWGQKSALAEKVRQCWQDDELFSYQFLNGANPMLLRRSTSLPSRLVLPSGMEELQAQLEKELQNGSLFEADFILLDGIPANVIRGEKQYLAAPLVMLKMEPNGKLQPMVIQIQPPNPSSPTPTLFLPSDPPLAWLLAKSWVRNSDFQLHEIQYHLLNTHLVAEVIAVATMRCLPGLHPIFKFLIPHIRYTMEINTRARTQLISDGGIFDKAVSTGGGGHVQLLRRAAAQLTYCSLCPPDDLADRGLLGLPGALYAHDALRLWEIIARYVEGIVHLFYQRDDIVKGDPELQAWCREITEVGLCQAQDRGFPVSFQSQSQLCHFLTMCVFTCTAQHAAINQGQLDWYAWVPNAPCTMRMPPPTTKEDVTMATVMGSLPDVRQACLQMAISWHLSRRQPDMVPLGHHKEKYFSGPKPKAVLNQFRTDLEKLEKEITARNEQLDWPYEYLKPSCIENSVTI
# Where “and” joins values, the source holds several entries; their conditions need not be identical. Equal values may be shown once. Hit rate of the full screen: of about 580,000 compounds, about 6,100 (1.1%) were called active. The inconclusive results got no clear call from the source; some entries with a clear call stand among them for comparison. Calls follow the shape of the dose curve; as a rule, active = well fitted inhibition curve with a large enough effect; inconclusive = small, poorly fitted or top-dose-only effect, or another doubt; inactive = no such curve, though single readings can be large or run the other way. Where the call is inconclusive, the potency comes from a doubtful curve fit.
# Molecular target: Polyunsaturated fatty acid lipoxygenase ALOX12 (Homo sapiens) (UniProt P18054)
# Test: Primary qHTS assay for inhibitors of human arachidonate 12S-lipoxygenase (ALOX12): Round 2
# Details: purified 12hLO, xylenol orange hydroperoxide absorbance; activity change, negative = inhibition: at 108 µM (top of the series) unless noted
# How it was run: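 Hydroperoxide product was detected by ferrous iron/xylenol orange as the 573 to 405 nm absorbance ratio. Arachidonic acid at 40 uM (final) was turned over for 30 min at room temperature by 150 nM human 12hLO, pH 7.0 Hepes buffer, after 15 min compound preincubation.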
# % is scaled to controls: 0 for no effect and ±100 for the full control effect; potency is read from the fitted curve at half-maximal effect.
SMILES,Potency,"activity change, negative = inhibition"
COc1cc(C2C3=C(CCCC3=O)Nc3c(C#N)cnn32)cc(OC)c1O (stereo not given),"inconclusive: 50.1 µM [inhibitor, partial curve, poor fit]",–
CCN(CC)S(=O)(=O)c1ccc(NC2c3ncccc3C(=O)N2Cc2ccccc2)cc1 (stereo not given),"inconclusive: 31.6 µM [inhibitor, partial curve, poor fit]",–
N#C/C(=C/c1ccccc1)C(=O)OCC1CCCO1 (stereo not given),–,inactive: -16.3%
O=C(NCCC(=O)N1CCN(c2ncccn2)CC1)c1ccccc1Cl,"inconclusive: 141 µM [inhibitor, partial curve, poor fit]",–
CCOc1ccccc1/C=N/Nc1nc2c(N)ncnc2n1[C@H]1O[C@@H](CO)[C@H](O)[C@@H]1O,"inconclusive: 2 µM [inhibitor, partial curve, poor fit]",–
N#Cc1ccccc1S(=O)(=O)N1CCN(Cc2cccs2)CC1,–,inactive: -17.8%
COc1ccc(C)cc1N1C(=N)/C(=C2/Nc3ccccc3S2)C(c2ccccc2)C1=O (stereo not given),–,inactive: -17.9%
CC(=O)c1ccc(N2CCN(c3ccc(C(N)=O)cc3[N+](=O)[O-])CC2)cc1,–,inactive: -0.601%
Cc1[nH]c2ccccc2c1NC(=O)CN1CCN(c2cccc(C(F)(F)F)c2)CC1,–,inactive: 364%
Cc1ccc(C2CCN(C(=O)c3cnn(-c4ccc(C)c(C)c4)c3C3CCN(C(=O)OC(C)(C)C)CC3)C2)cc1 (stereo not given),"inconclusive: 50.1 µM [inhibitor, full curve, poor fit]",–
Cc1oc(-c2nc(C#N)c(N3CCCC3)o2)cc1S(=O)(=O)N(C)C,–,inactive: 20.7%
CCOC(=O)SC1=N/C(=C\c2ccc(N(C)C)cc2)C(=O)S1,"inconclusive: 10 µM [inhibitor, partial curve, poor fit]",–
CCOc1ccc(N(CC)S(=O)(=O)N2CCCC(C(=O)Nc3ccc(OC)c(Cl)c3)C2)cc1 (stereo not given),–,inactive: 2.31%
CC(c1n[nH]c(=O)n1CCC(=O)O)n1cccn1 (stereo not given),"inconclusive: 22.4 µM [inhibitor, partial curve, poor fit]",–
COc1ccc(-c2oc3ccc(OC)cc3c2C(=O)Nc2ccc(C(C)=O)cc2)cc1,"inconclusive: 141 µM [inhibitor, single point]",–
CCOC(=O)c1c(N2CCN(c3ccccc3)CC2)cc(C)nc1C,"inconclusive: 0.562 µM [inhibitor, full curve, poor fit]",–
Cc1cc(-c2ccccc2)c2c(=O)n(-c3ccccc3)[nH]c2n1,"inconclusive: 112 µM [inhibitor, single point]",–
CCCCCCNc1nc2c(c(=O)n(C)c(=O)n2C)n1Cc1cccc(Cl)c1,–,inactive: -2.97%
CCCCN(CC)c1ccc(NS(=O)(=O)c2cccs2)cc1C(=O)O,"inconclusive: 5.01 µM [inhibitor, partial curve, poor fit]",–
COc1ccc(NC(=O)c2cc(-c3ccc(C)o3)nc3ccccc23)c(OC)c1,"inconclusive: 31.6 µM [inhibitor, partial curve] and inconclusive: 35.5 µM [inhibitor, partial curve, poor fit]",–
Cc1nn2c(c1-c1ccccc1-c1ccccc1)N(CC1CC1)CCC2,"inconclusive: 89.1 µM [inhibitor, partial curve]",–
CCS(=O)(=O)n1nc(-c2ccc(Cl)cc2)nc1N,"inconclusive: 56.2 µM [inhibitor, partial curve, poor fit]",–

SMILES,Potency,"activity change, negative = inhibition"
Cc1ccc(-c2nnc3c4ccccc4c(C)nn23)cc1S(=O)(=O)N1CCN(CCO)CC1,–,inactive: 0%
C[C@]12CCC3c4ccc(OCC(=O)O)cc4CCC3C1CCC2=O (stereo not given in full),"inconclusive: 44.7 µM [inhibitor, partial curve, poor fit]",–
Nc1nc(NC(=O)c2cccs2)nn1-c1ccccc1,"inconclusive: 12.6 µM [inhibitor, partial curve, poor fit]",–
O=C(CN(c1ccc(F)cc1)S(=O)(=O)c1ccc2c(c1)OCCO2)Nc1cccnc1,"inconclusive: 31.6 µM [inhibitor, single point]",–
O=C(O)c1cc(-c2ccc(-c3ccc(F)cc3)o2)nc2ccccc12,"inconclusive: 44.7 µM [inhibitor, partial curve]",–
Cc1ccccc1NC(=S)NC(C)C(c1ccccc1)N1CCN(C)CC1 (stereo not given),"inconclusive: 89.1 µM [inhibitor, partial curve, poor fit]",–
COc1cccc(NC(=O)CSc2c3c(nc4ccccc24)CCCC3)c1,inactive,–
CSc1cccc(NS(=O)(=O)c2ccc3c(c2)oc(=O)n3C)c1,–,inactive: 440%
CS(=O)(=O)c1ccc(C(=O)N2CCN(S(=O)(=O)c3ccc(C4CCCCC4)cc3)CC2)cc1,–,inactive: -3.07%
COCCNCC#CCOc1ccc(OC)cc1,"inconclusive: 2 µM [inhibitor, full curve, poor fit]",–
Cc1cc(Br)cn2c(Cc3ccsc3)c(-c3ccco3)nc12,"inconclusive: 39.8 µM [inhibitor, partial curve, poor fit]",–
CCN1CCN(c2ccc(NC(=O)c3ccc(Cl)c(S(=O)(=O)N4CCCC4)c3)cc2)CC1,"inconclusive: 56.2 µM [inhibitor, partial curve, poor fit]",–
O=C(Nc1ccccc1C(F)(F)F)N1CC=C(c2c[nH]c3ccccc23)CC1,–,inactive: -13.9%
CCC1OC2(C)OC(=N)C1(C#N)C(C#N)(C#N)C2c1ccccc1 (stereo not given),"inconclusive: 50.1 µM [inhibitor, partial curve, poor fit]",–
CCCCN(C(=O)c1cccc(S(=O)(=O)N2CCN(Cc3ccccc3)CC2)c1)c1ccccc1,–,inconclusive: -30.5% [inhibitor]
O=C(Nc1ccccc1C(=O)O)c1cc(S(=O)(=O)NCc2ccccc2)ccc1Cl,"inconclusive: 50.1 µM [inhibitor, partial curve, poor fit]",–
COc1ccc(C2/C(=C(\O)c3ccc4c(c3)OCCO4)C(=O)C(=O)N2c2nc(C)c(C(C)=O)s2)cc1 (stereo not given),"inconclusive: 44.7 µM [inhibitor, partial curve, poor fit]",–
N#Cc1ccc(-c2nc3ccc(Br)cn3c2Cc2ccccc2C(F)(F)F)cc1,"inconclusive: 56.2 µM [inhibitor, partial curve, poor fit]",–
Cc1c(Cl)ccc2sc(N3CCN(C(=O)C4CC4)CC3)nc12,"inconclusive: 79.4 µM [inhibitor, partial curve, poor fit]",–
C/C(=N/Nc1ccc(S(N)(=O)=O)cc1[N+](=O)[O-])c1ccc2c(c1)Nc1ccccc1S2,"inconclusive: 0.708 µM [inhibitor, full curve, poor fit]",–
Cc1ccc(C(=O)N2C[C@@H](CN3CCCN(C)CC3)[C@@H](CO)C2)nc1,–,inactive: 26%
CCCCCCC(=O)OCC(=O)c1ccc2c(c1)NC(=O)CO2,–,inactive: -8.75%

SMILES,Potency,"activity change, negative = inhibition"
Cc1c(C=O)c2ccccc2n1CC(=O)NC(C)c1ccccc1 (stereo not given),–,inactive: -4.49%
COc1ccc(/C=c2\sc3nc(-c4ccccc4OC)nn3c2=O)c(OC)c1,–,inactive: -14.7%
Cc1ccsc1CN(C)CC(=O)Nc1ccc([N+](=O)[O-])cc1Cl,–,inactive: -9.88%
O=C(O)c1nnn(-c2cccc(C(F)(F)F)c2)c1-c1ccccc1,"inconclusive: 112 µM [inhibitor, single point]",–
CCC1(C)Cc2c(sc3c2c2ncnn2c2nnc(SCC(=O)NCc4ccco4)n32)CO1 (stereo not given),–,inactive: 28.1%
Cc1nn(C)c(C)c1CCC(=O)Nc1nccs1,"inconclusive: 0.501 µM [inhibitor, full curve, poor fit]",–
O=c1cc(C(F)(F)F)c2ccc(OS(=O)(=O)c3ccc4c(c3)CCC4)cc2o1,"inconclusive: 3.16 µM [inhibitor, full curve, poor fit]",–
CCn1c(SCc2nc(-c3ccccc3)no2)nnc1-c1cccs1,–,inactive: 0%
COc1ccccc1-c1n[nH]c(=S)o1,"inconclusive: 44.7 µM [inhibitor, partial curve, poor fit]",–
C[C@@H]1CN([C@H](C)CO)C(=O)c2cc(NS(=O)(=O)c3ccc(F)cc3)ccc2O[C@@H]1CN(C)Cc1ccc(Cl)c(Cl)c1,"inconclusive: 44.7 µM [inhibitor, partial curve, poor fit]",–
CC(C)CN(CC(C)C)c1ccc(/C=N/n2cnnc2)cc1[N+](=O)[O-],"inconclusive: 112 µM [inhibitor, single point]",–
Cc1ccc2nc3c(c(N)c2c1)CCN3C,"inconclusive: 3.16 µM [inhibitor, full curve, poor fit]",–
Cc1ccc(-c2nnc(N(C)C(=O)C3CCCO3)s2)cn1 (stereo not given),"inconclusive: 11.2 µM [inhibitor, partial curve, poor fit]",–
CC(=O)c1cccc(NC(=O)CSc2nc3ccccc3nc2Cc2ccc(F)cc2)c1,–,inconclusive: -37.5% [inhibitor]
COc1cccc(NC(=O)Cn2cccc2-c2nc(-c3ccc(OC)c(F)c3)no2)c1,–,inactive: -3.65%
COc1ccc(S(=O)(=O)C(C#N)c2nc3ccccc3nc2N2CCCC(C)C2)cc1 (stereo not given),"inconclusive: 7.94 µM [inhibitor, full curve, poor fit]",–
Cc1cc(C)c2c(CN3CCN(c4ccc(F)cc4)CC3)cc(=O)oc2c1,"inconclusive: 35.5 µM [inhibitor, partial curve]",–
O=S(=O)(c1cccnc1)N1CCC(N(Cc2cccnc2)C2CCOCC2)CC1,–,inactive: 15.9%
O=C(CNC(=O)c1ccco1)NCC(=O)OCc1ccc(Cl)cc1,"inconclusive: 56.2 µM [inhibitor, partial curve, poor fit]",–
O=C(c1cc(F)cc(F)c1)N1CCC(N2CC3CC(C2)[C@H]2CCCC(=O)N2C3)CC1 (stereo not given in full),–,inactive: 37.9%
COc1ccc(NC(=O)N2CCNC(=O)C2CC(=O)Nc2ccc(F)cc2)cc1 (stereo not given),"inconclusive: 100 µM [inhibitor, partial curve, poor fit]",–
